Assay results taken from US10888864B2, “Electrochemical metabolic activity detecting device” (The Governing Council of the University of Toronto, priority 2014, dated 2021).

Tested on: K. pneumoniae
Experiment: time required for antibiotics to hinder metabolic activity (resazurin fluorescence)
Assay type: cell-based, Klebsiella pneumoniae
Conditions: K. pneumoniae 1×10^5 cfu/μL, antibiotic 100 μg/mL, LB media, 1 mM resazurin, 37° C., FIG. 16
Method: In order to choose a suitable incubation period for the susceptibility test, the time required for the antibiotics to begin inhibiting bacterial metabolic activity was investigated. […] The increase in fluorescence induced by the conversion of resazurin by metabolically active bacteria was recorded.

O=C(O)c1cn(C2CC2)c2cc(N3CCNCC3)c(F)cc2c1=O [ciprofloxacin]
time until fluorescence signal (resazurin conversion) is suppressed: ≤ 30 min
